Laboratory results from PubChem BioAssay AID1347076 (National Center for Advancing Translational Sciences (NCATS), 2019).
Among all 400,000 compounds or so, about 13,000 (3.2%) were called active. Inconclusive results, whose numbers are uncertain, are shown with a selection of clear calls. Calls come from the whole dose curve; as a rule, active = well fitted cell-killing curve with a large enough effect; inconclusive = small, poorly fitted or top-dose-only effect, or effect the other way; inactive = flat fitted curve, though single readings scatter. Potencies of inconclusive entries are doubtful fits and often do not repeat.

Experiment: qHTS assay for MDR1-selective chemotherapeutics: Primary screen using the drug-selected MDR subline cells KB-V1; note: nearly all actives have a fitted effect of over 60% in size
Settings: KB-V1 MDR cells viability, CellTiter-Glo, 72 h; activity change, negative = cytotoxicity: at 46.1 µM (top of the series)
Summary of the method: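 Drug-selected KB-V1 cells, grown in DMEM lacking phenol red with 10% FBS, receive compound titrations; after three days at 37 degrees C, surviving cell ATP is quantified by CellTiter-Glo luminescence and responses normalized and curve-fitted.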
% is set by controls: 0 for no effect and ±100 for the full control effect; potency is the fitted concentration of half-maximal effect.

Row | Structure (SMILES) | activity change, negative = cytotoxicity | Potency
1 | CCOc1ccc2[nH]c(=O)c(C(c3nnnn3C3CCCCC3)N3CCN(C)CC3)cc2c1 (stereo not drawn) | inactive: 16.6% | 
2 | Cc1cc2ccccn2c1C(=O)c1ccc(S(=O)(=O)N(C)C)cc1 |  | inconclusive: 25.9 µM [cytotoxic, single point]
3 | COCC(=O)Nc1ccc(N2CCN(c3ccccc3)CC2)c(F)c1 |  | inconclusive: 29.1 µM [rising, single point]
4 | COc1ccc(C(=O)OCc2c(F)cccc2Cl)cc1S(=O)(=O)N1CCOCC1 |  | inconclusive: 23.1 µM [cytotoxic, single point]
5 | Cc1ccc(Cl)c(NC(=O)Nc2csc3c2CCCC3)c1 |  | inconclusive: 9.2 µM [rising, partial curve]
6 | CC(C)OC(=O)C(=O)NNc1ccccc1 | inactive: -5.47% | 
7 | CC(=O)Nc1ccc2nc(C)n(Cc3ccc(Cl)cc3)c(=O)c2c1 |  | inconclusive: 20.6 µM [cytotoxic, single point]
8 | COCCN(CC(=O)Nc1cccc(C)c1C)C(=O)c1cc2ccccc2cc1OC | inactive: 1.52% | 
9 | COc1ccccc1OCCNc1cc(N2CCOCC2)ccc1[N+](=O)[O-] |  | inconclusive: 2.91 µM [cytotoxic, full curve]
10 | CCOC(=O)CSC1=C(C#N)C(c2sccc2C)CC(=O)N1 (stereo not drawn) |  | inconclusive: 0.891 µM [cytotoxic, full curve, poor fit]
11 | O=C(COC(=O)Cn1nnc(-c2ccccc2)n1)Nc1cc(F)ccc1F |  | inconclusive: 18.4 µM [rising, single point]
12 | Cc1cc(Cl)ccc1Oc1nccc(N(C)C)c1C#N |  | inconclusive: 29.1 µM [cytotoxic, single point]
13 | CCN(c1ccccc1)S(=O)(=O)c1cccc(C(=O)NCC(c2ccco2)N2CCCC2)c1 (stereo not drawn) |  | inconclusive: 1.84 µM [cytotoxic, full curve, poor fit]
14 | Fc1ccc(-n2c(-c3ccco3)n[nH]c2=S)cc1 |  | inconclusive: 13 µM [rising, partial curve, poor fit]
15 | CCCCNC(=S)Nc1cccc2cnccc12 |  | inconclusive: 18.4 µM [cytotoxic, single point]
16 | O=C1C=C(c2ccc(Cl)cc2)OC2(CCCC2)O1 |  | inconclusive: 32.6 µM [rising, single point]
17 | C=CCNC(=O)NC(=O)COn1nnc2ccc(S(=O)(=O)N(C)C)cc21 |  | inconclusive: 8.2 µM [rising, partial curve, poor fit]
18 | COc1cccc(N2C(=O)N(Cc3ccc(C#N)cc3)c3ccccc3S2(=O)=O)c1 | inactive: 24.8% | 
19 | C=CCn1cc(/C=N/Nc2nc3ccccc3[nH]2)c2ccccc21 |  | inconclusive: 16.4 µM [cytotoxic, single point]
20 | CC1=C(C)CC(C(=O)N2CCN(C/C=C/c3ccccc3)CC2)C(C(=O)O)C1 (stereo not drawn) |  | inconclusive: 29.1 µM [rising, single point]
21 | Cc1cc(C)cc(NC(=O)Nc2ccc3c(c2)N(C)C(=O)CS3)c1 | inactive: -13.8% | 
22 | Cc1ccccc1C(C)NS(=O)(=O)c1ccc2c(c1)OCCO2 (stereo not drawn) | inactive: -5.31% | 
23 | CCOC(=O)c1sc2nc(OCCN3CCOCC3)cc(C)c2c1N |  | inconclusive: 14.6 µM [cytotoxic, partial curve, poor fit]

Row | Structure (SMILES) | activity change, negative = cytotoxicity | Potency
24 | COc1cccc(NC(=O)CN(C)C(=O)CSc2ccc3c(c2)OCCO3)c1 |  | active: 20.6 µM
25 | O=C(N/N=C/c1sc(N2CCOCC2)nc1-c1ccccc1)c1ccccc1Cl | inactive: -3.6% | 
26 | CCOC(=O)C1(Cc2ccc(OC)cc2)CCN(C(=O)CCc2cccnc2)CC1 |  | inconclusive: 0.291 µM [cytotoxic, full curve, poor fit]
27 | Cc1ccc(-c2nc(CSCC(=O)NCCN3CCN(Cc4ccccc4)CC3)c(C)o2)cc1 |  | inconclusive: 4.61 µM [cytotoxic, full curve]
28 | O=C(NC(c1ccc(F)cc1)c1ccc2ccccc2n1)C1CCN(CCOc2ccc(Cl)cc2)CC1 (stereo not drawn) |  | inconclusive: 29.1 µM [cytotoxic, single point]
29 | O=C(NCCN1CCN(C(=O)c2ccc(Br)cc2)CC1)c1ccc(Br)cc1 |  | inconclusive: 5.17 µM [cytotoxic, full curve]
30 | O=C(NCc1ccccc1Cl)c1cnc2sc(N3CCOCC3)nn2c1=O | inactive: 4.26% | 
31 | Cc1ccc(F)c(S(=O)(=O)NC(=O)C2(C)CCN2C(=O)c2ccco2)c1 (stereo not drawn) | inactive: 2.85% | 
32 | O=C1CC(N2CCN(C/C=C/c3ccccc3)CC2)C(=O)N1CCc1ccccc1 (stereo not drawn) |  | active: 11.6 µM
33 | COCC(C)n1c(SCC(=O)NNC(=O)c2ccc(F)cc2)nc2ccccc2c1=O (stereo not drawn) |  | inconclusive: 14.6 µM [cytotoxic, partial curve]
34 | O=c1oc(-c2ccccc2NS(=O)(=O)c2ccc3ccccc3c2)nc2ccccc12 | inactive: -9.98% | 
35 | COc1ccc(-c2noc(-c3ccc(NCc4cccnc4)c([N+](=O)[O-])c3)n2)cc1 |  | inconclusive: 20.6 µM [rising, partial curve]
36 | CCn1c(SCC(=O)Nc2ccc(OC)cc2)nc2nc3c(cc2c1=O)COC(C)(C)C3 |  | inconclusive: 2.06 µM [cytotoxic, full curve, poor fit]
37 | COC(=O)CNc1nc(Cl)nc(N2CCC(C)CC2)n1 |  | inconclusive: 20.6 µM [cytotoxic, single point]
38 | CN(C)/C=N/C(=S)Nc1ccc(Cl)cc1Cl | inactive: 1.29% | 
39 | O=S(=O)(Nc1ccccc1)c1ccc(-c2cnc(C3CC3)o2)cc1 |  | inconclusive: 29.1 µM [cytotoxic, single point]
40 | O=S(=O)(c1cccc(Cl)c1Cl)N1CCN(C(=S)NCCCN2CCOCC2)CC1 |  | inconclusive: 9.2 µM [cytotoxic, partial curve]
41 | O=C(O)CNC(=S)N(Cc1ccccc1)Cc1cccnc1 |  | inconclusive: 29.1 µM [rising, single point]
42 | COc1cccc(NC(=O)c2cc(-c3ccco3)nc3ccccc23)c1 |  | inconclusive: 0.291 µM [cytotoxic, partial curve, poor fit]
43 | O=c1[nH]c(CN2CCN(S(=O)(=O)c3ccccc3C(F)(F)F)CC2)nc2sc3c(c12)CCCC3 | inactive: -10.4% | 
44 | CCC(C)(C)n1nnnc1C(c1cc2cc(C)ccc2[nH]c1=O)N1CCCC1 (stereo not drawn) |  | inconclusive: 18.4 µM [cytotoxic, single point]
45 | COc1ccc(-c2[nH]ncc2N=Nc2cc(C)cc(C)c2)cc1 |  | inconclusive: 16.4 µM [cytotoxic, single point]
46 | CN(Cc1c(O)ccc2c1oc(=O)c1ccccc12)C1CCCCC1 |  | inconclusive: 4.11 µM [cytotoxic, full curve]

Entries shown so far that have a thiophene ring, fused or not (4):
Row | Structure (SMILES) | activity change, negative = cytotoxicity | Potency
5 | Cc1ccc(Cl)c(NC(=O)Nc2csc3c2CCCC3)c1 |  | inconclusive: 9.2 µM [rising, partial curve]
10 | CCOC(=O)CSC1=C(C#N)C(c2sccc2C)CC(=O)N1 (stereo not drawn) |  | inconclusive: 0.891 µM [cytotoxic, full curve, poor fit]
23 | CCOC(=O)c1sc2nc(OCCN3CCOCC3)cc(C)c2c1N |  | inconclusive: 14.6 µM [cytotoxic, partial curve, poor fit]
43 | O=c1[nH]c(CN2CCN(S(=O)(=O)c3ccccc3C(F)(F)F)CC2)nc2sc3c(c12)CCCC3 | inactive: -10.4% | 

Later entries:

Row | Structure (SMILES) | activity change, negative = cytotoxicity | Potency
47 | Cc1nc(-c2ccc(S(=O)(=O)N3CCCN(CCc4ccccc4)CC3)s2)cs1 |  | inconclusive: 7.31 µM [cytotoxic, partial curve]
48 | COCC(C)NC(=O)C1CCN(S(=O)(=O)c2ccc3ccccc3c2)CC1 (stereo not drawn) |  | inconclusive: 10.3 µM [cytotoxic, partial curve]
49 | COc1ccc(CN2CCN(S(=O)(=O)c3ccc(F)cc3)CC2)cc1OC | inactive: -1.65% | 
50 | CSc1ccc(/C=C2\C=Cc3ccc([N+](=O)[O-])cc32)cc1 |  | inconclusive: 14.6 µM [rising, single point]
51 | CSc1nc(-c2ccccc2)nc(C(C)C)n1 |  | inconclusive: 20.6 µM [rising, single point]
52 | COc1ccc(CNC(=O)C(c2ccco2)N(Cc2cccs2)C(=O)Cc2cccs2)cc1 (stereo not drawn) |  | inconclusive: 20.6 µM [cytotoxic, single point]
53 | COc1cccc(CNc2nc3c(-c4ccccc4)nnn3c3ccccc23)c1 |  | inconclusive: 0.731 µM [cytotoxic, full curve, poor fit]
54 | COc1ccc(CCNC(=O)Cn2c(=O)n(-c3cc(OC)c(OC)c(OC)c3)c(=O)c3ccccc32)cc1OC |  | inconclusive: 29.1 µM [rising, single point]
55 | CCOc1ccccc1C(=O)N[C@H](C(=O)OCc1csc(CC(=O)Nc2ccc(C)cc2)n1)C(C)C | inactive: -18% | 
56 | CN1CCN(C(=O)c2ccc(-c3cnn(C)c3)c3ccoc23)CC1 | inactive: -2.55% | 
57 | O=C(N/N=C/C=C\c1ccccc1)c1cnccn1 | inactive: 10.2% | 
58 | CCn1c(=O)c2cc(C(=O)N(C)c3ccc(OC)cc3OC)sc2c2ccccc21 |  | inconclusive: 13 µM [cytotoxic, single point]
59 | Nc1nonc1N/N=C/c1c(O)ccc2ccccc12 |  | inconclusive: 18.4 µM [cytotoxic, single point]
60 | CCC1CCCCN1C(=O)CSc1nnc(-c2ccc(OC)cc2)o1 (stereo not drawn) |  | inconclusive: 9.2 µM [cytotoxic, single point]
61 | COc1cc(OC)cc(C(=O)NNC(=O)c2cc3ccccc3cc2O)c1 |  | inconclusive: 29.1 µM [cytotoxic, single point]
62 | O=C(NCc1cccnc1)c1cc(C2CCCCN2S(=O)(=O)c2cccs2)on1 (stereo not drawn) | inactive: 0% | 
63 | CCOC(=O)c1cc(-c2ccccc2)sc1NC(=O)C(C)Sc1nnc(C)s1 (stereo not drawn) |  | inconclusive: 4.61 µM [cytotoxic, partial curve]
64 | CC1(C)C(=O)OC(c2cc(Br)ccc2O)C(C)(C)C1=O (stereo not drawn) |  | inconclusive: 23.1 µM [cytotoxic, single point]
65 | Cc1ccc(Nc2nc(-c3sc(C)nc3C)cs2)cc1 |  | active: 1.84 µM
66 | Nc1cc(=O)nc(SCC(=O)Nc2ccccc2)n1-c1ccccc1 |  | inconclusive: 8.2 µM [rising, partial curve, poor fit]
67 | Cc1ccc(C(C)C)cc1S(=O)(=O)NCc1ccccn1 |  | inconclusive: 32.6 µM [cytotoxic, single point]
68 | O=C(N/N=C/c1ccc(O)cc1O)/C(=C/c1ccccc1)CCO |  | inconclusive: 29.1 µM [cytotoxic, single point]
